Test results taken from paper PMC11339177.

Chains of the proteins cited; added tags and fusions are not shown. Lines headed by an entry give the natural chain unless they say otherwise; changes in a name come on top. Residues count along the entry.
UniProt Q14126, residues 50-1118: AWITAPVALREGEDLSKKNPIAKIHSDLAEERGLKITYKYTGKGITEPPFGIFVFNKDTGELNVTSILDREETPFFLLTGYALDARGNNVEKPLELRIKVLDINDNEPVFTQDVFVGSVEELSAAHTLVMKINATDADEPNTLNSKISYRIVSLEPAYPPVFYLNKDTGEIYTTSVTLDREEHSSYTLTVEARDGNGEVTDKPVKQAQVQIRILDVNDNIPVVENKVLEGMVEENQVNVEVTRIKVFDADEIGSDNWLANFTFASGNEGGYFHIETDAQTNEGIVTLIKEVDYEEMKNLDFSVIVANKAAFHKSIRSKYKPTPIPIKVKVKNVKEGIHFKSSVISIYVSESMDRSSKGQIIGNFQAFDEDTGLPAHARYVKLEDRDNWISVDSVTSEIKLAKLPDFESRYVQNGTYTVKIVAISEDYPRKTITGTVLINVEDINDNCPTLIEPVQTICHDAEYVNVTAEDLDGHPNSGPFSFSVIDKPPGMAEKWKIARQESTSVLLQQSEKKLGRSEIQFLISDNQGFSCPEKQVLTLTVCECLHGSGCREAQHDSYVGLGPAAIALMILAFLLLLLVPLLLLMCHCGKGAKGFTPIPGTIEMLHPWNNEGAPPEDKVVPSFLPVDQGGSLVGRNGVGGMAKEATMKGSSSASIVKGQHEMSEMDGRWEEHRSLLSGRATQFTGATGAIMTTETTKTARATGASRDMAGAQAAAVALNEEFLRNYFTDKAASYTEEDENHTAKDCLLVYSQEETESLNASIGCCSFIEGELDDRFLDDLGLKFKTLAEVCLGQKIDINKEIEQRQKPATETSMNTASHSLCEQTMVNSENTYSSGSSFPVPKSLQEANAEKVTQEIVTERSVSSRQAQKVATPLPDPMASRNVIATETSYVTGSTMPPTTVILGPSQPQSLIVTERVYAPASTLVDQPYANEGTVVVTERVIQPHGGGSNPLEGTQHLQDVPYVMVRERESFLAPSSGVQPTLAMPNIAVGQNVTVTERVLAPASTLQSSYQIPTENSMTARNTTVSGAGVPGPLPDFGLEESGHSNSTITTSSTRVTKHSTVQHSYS
UniProt P14780: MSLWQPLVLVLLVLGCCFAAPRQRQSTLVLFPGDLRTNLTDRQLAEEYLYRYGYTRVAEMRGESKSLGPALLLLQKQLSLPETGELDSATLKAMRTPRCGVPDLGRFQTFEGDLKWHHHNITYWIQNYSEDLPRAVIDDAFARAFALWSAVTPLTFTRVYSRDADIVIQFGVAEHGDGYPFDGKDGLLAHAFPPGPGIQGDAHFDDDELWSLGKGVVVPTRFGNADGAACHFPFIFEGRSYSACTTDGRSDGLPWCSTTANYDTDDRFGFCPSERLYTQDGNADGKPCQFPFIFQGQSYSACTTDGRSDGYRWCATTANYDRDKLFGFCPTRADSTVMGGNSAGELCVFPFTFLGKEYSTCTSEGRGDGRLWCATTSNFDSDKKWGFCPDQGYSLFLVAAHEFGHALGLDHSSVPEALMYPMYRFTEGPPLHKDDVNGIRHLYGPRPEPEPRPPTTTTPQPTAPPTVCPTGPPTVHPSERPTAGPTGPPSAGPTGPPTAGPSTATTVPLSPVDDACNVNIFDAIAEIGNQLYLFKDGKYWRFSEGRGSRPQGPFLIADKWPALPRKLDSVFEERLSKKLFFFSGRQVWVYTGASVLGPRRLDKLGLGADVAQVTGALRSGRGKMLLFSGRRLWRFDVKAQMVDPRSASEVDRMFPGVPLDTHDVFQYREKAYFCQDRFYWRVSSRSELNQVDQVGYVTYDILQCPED

Target: desmoglein-2 (DSG2), expressed from the plasmid DSG2-pEGFP-C1 (UniProt Q14126)
Test: co-IP; immunoprecipitation of DSG2 protein from transfected cells (Pierce Classic Magnetic Bead IP/Co-IP Kit), eluate analysed by Western blot; cell line not stated

binding: binds
Substance: matrix metallopeptidase 9 (MMP-9) (from UniProt P14780)

Results are given in words; binding and its absence hold for the method and conditions named. Binding seen in cells or lysates may run through a third protein. Binding can be weak; no strength is given.
